Assay results reported in PubChem BioAssay AID588499 (NMMLSC, 2011).
The whole screen tested about 360,000 compounds, of which about 610 (0.17%) were called active. The shares of active, inactive and inconclusive entries below differ from those in the screen. No stated cut-off is given here; in the data, active means inhibition above about 30%; inconclusive means no clear call, values can overlap the other calls; inactive means below that.

What follows are compounds tested on Botulinum neurotoxin type A light chain protease (Clostridium botulinum A str. ATCC 3502) (assay: blockers of BoNT/A LC substrate cleavage – biochemical, flow cytometry, MLPCN library, primary screen (AID 588499; further: plate controls were buffer without enzyme for full effect and enzyme alone for no effect)). Settings: multiplex microsphere protease substrate cleavage, at 10 µM, stronger effect = higher value.

| Structure (SMILES) | inhibition |
| --- | --- |
| COC(=O)c1ccc(S(=O)(=O)NCc2ccco2)o1 | inconclusive: -16% |
| CC(=O)NC(=O)NC1CSCC1OC(C)=O (stereo unspecified) | inconclusive: -3.3% |
| O=C(NNC(=O)c1ccc[nH]1)Nc1cccc(C(F)(F)F)c1 | inconclusive: 0.5% |
| CCOC(=O)c1nnn(-c2nonc2OC)c1-c1ccccc1 | inconclusive: 0.6% |
| CCOC(=O)C1(C)CCN1C(=O)c1cccs1 (stereo unspecified) | inactive: 0.2% |
| Nc1nccc(/C=C/c2ccc(Cl)cc2)n1 | inactive: -1.2% |
| CC(CNC(=O)CCS(=O)(=O)c1ccc2c(c1)oc(=O)n2C)c1ccccc1 (stereo unspecified) | inactive: -1.3% |
| O=C(Nc1ccc2c(c1)C(=O)N(CC1CCCO1)C2=O)c1ccc(Cl)c(Cl)c1 (stereo unspecified) | inconclusive: 0.2% |
| O=C(c1cc2nc(-c3ccc(Cl)cc3)cc(C(F)(F)F)n2n1)N1CCOCC1 | inactive: -0.1% |
| Cn1c(C(=O)O)ccc1S(=O)(=O)N(Cc1ccccc1)Cc1ccccc1 | inconclusive: -49.6% |
| CC1CCc2cc(F)ccc2N1C(=O)CSc1nnc(-c2cccs2)n1C (stereo unspecified) | inconclusive: -3.5% |
| S=c1[nH]nc(-c2ccco2)n1/N=C/c1cccc(Cl)c1 | inconclusive: 0.8% |
| Cc1ccc(S(=O)(=O)n2nc(-c3ccc(Cl)cc3)nc2NCc2ccco2)cc1 | inconclusive: -2.5% |
| CCOc1cccc(C=Nc2cc(C)cc(C)c2O)c1O | inconclusive: 3.6% |
| COc1cc(C(=O)Nc2ccc3c(c2)ncn3C)cc(OC)c1OC | inconclusive: -3.2% |
| COc1cc(/C=C2\SC(=S)N(Nc3ncc(C(F)(F)F)cc3Cl)C2=O)cc(OC)c1OC | active: 82.7% |
| CC(C)C(=O)NNC(=O)c1csc(CS(=O)(=O)c2ccc(Cl)cc2)n1 | inconclusive: -13.7% |
| COc1ccc(-c2nnc(N3CCC(C)CC3)c3ccccc23)cc1 | inconclusive: -0.8% |
| C=CCn1c(C)c(C=C2C(=O)NC(=O)NC2=O)c2ccccc21 | active: 33.1% |
| COC(=O)c1nn(-c2ccc(OC)cc2)c(=O)cc1Oc1cccc(Cl)c1 | inconclusive: 0.5% |
| Cc1nc(C(=O)Nc2cccc(Cl)c2)nn1-c1cc(OC(C)C)c(Cl)cc1Cl | inconclusive: -1.7% |
| O=c1c2c([nH]c3ccccc13)CCCCC2 | inactive: -1.6% |
| CCN1CCN(c2nc3ccccn3c(=O)c2/C=C(\C#N)S(=O)(=O)c2ccccc2)CC1 | inconclusive: -9.3% |

| Structure (SMILES) | inhibition |
| --- | --- |
| Cc1ccc(C)c(S(=O)(=O)N2CCCOC2CNC(=O)C(=O)NC2CC2)c1 (stereo unspecified) | inactive: -0.7% |
| COc1ccc(-c2csc(N(CCCN(C)C)C(=O)c3cccs3)n2)cc1 | inconclusive: -1.9% |
| CCOc1cc(C2Nc3ccccc3NC3=C2C(=O)CC(C)(C)C3)ccc1OC(C)=O (stereo unspecified) | inconclusive: 1.4% |
| Nc1ncnc2nc(SCC(=O)N3CCN(c4ccccc4)CC3)[nH]c12 | inconclusive: 21% |
| COC(=O)c1cc2c(N)c(C(=O)c3ccccc3)sc2nc1C(OC)OC | inconclusive: 3% |
| O=C(c1cnc(-c2ccccc2)s1)c1ccc(Cl)cc1Cl | inconclusive: 0.2% |
| CCCC(CCC)c1nnc(NC(=O)c2ccco2)s1 | inconclusive: -2% |
| O=C(O)c1cccc(NC(=S)NC(=O)c2cccc(OCc3ccccc3)c2)c1 | inactive: -1.7% |
| S=c1[nH]nc(COc2ccc(Cl)cc2)o1 | inconclusive: 1.8% |
| CCOc1ccccc1NC(=O)Nc1cc(S(=O)(=O)N(C)C)ccc1C | inconclusive: -4.4% |
| O=C(CCS(=O)(=O)Cc1ccccc1)N1CCN(c2ccccc2)CC1 | inconclusive: 5.1% |
| COc1ccccc1/C=C1\SC(=S)N(CCC(=O)NNC(=O)c2ccccc2OC)C1=O | inactive: -6.2% |
| O=C(Cc1c(F)cccc1Cl)Nc1ccccc1C(=O)N1CCCCC1 | inconclusive: -2.4% |
| Cc1nc(NC(=O)C23CC4CC(CC(C4)C2)C3)sc1Cc1ccc2c(c1)OCO2 | inactive: -0.3% |
| CC12CCC(C(=O)N3CCCCC3)([C@H](Br)C1=O)C2(C)C (stereo partly specified) | inconclusive: 0.9% |
| Cc1onc(-c2c(Cl)cccc2Cl)c1COC(=O)c1ccc(Cl)cc1[N+](=O)[O-] | inconclusive: -14.8% |
| COc1ccc(NC(=O)C(CC(C)C)NC(=O)C2CCCCC2)c(OC)c1 (stereo unspecified) | inactive: -0.5% |
| COc1ccc2nc(C)cc(NCc3ccc(F)cc3)c2c1 | inactive: 15.8% |
| O=C(CC(O)(c1ccccc1)C(F)(F)C(F)F)c1cccs1 (stereo unspecified) | inconclusive: -0.1% |
| Cc1ccc(NC(=O)CN2CCN(Cc3ccccc3)CC2)c(Br)c1 | inconclusive: -1.5% |
| CN1CCN(c2ccc([N+](=O)[O-])cc2NC(=O)c2cccs2)CC1 | inactive: -0.6% |
| CCOC(=O)c1[nH]c(C)c(C(=O)N2CCN(c3ccc(OC)cc3)CC2)c1C | inactive: 0.5% |
| Cc1nc(-c2ccccc2)sc1-c1n[nH]c(=S)n1C | active: 29.9% |

Structural class: the compounds so far containing a carbonyl joined to an NH by a bond outside any ring (17)

| Structure (SMILES) | inhibition |
| --- | --- |
| CC(=O)NC(=O)NC1CSCC1OC(C)=O (stereo unspecified) | inconclusive: -3.3% |
| O=C(NNC(=O)c1ccc[nH]1)Nc1cccc(C(F)(F)F)c1 | inconclusive: 0.5% |
| CC(CNC(=O)CCS(=O)(=O)c1ccc2c(c1)oc(=O)n2C)c1ccccc1 (stereo unspecified) | inactive: -1.3% |
| O=C(Nc1ccc2c(c1)C(=O)N(CC1CCCO1)C2=O)c1ccc(Cl)c(Cl)c1 (stereo unspecified) | inconclusive: 0.2% |
| COc1cc(C(=O)Nc2ccc3c(c2)ncn3C)cc(OC)c1OC | inconclusive: -3.2% |
| CC(C)C(=O)NNC(=O)c1csc(CS(=O)(=O)c2ccc(Cl)cc2)n1 | inconclusive: -13.7% |
| Cc1nc(C(=O)Nc2cccc(Cl)c2)nn1-c1cc(OC(C)C)c(Cl)cc1Cl | inconclusive: -1.7% |
| Cc1ccc(C)c(S(=O)(=O)N2CCCOC2CNC(=O)C(=O)NC2CC2)c1 (stereo unspecified) | inactive: -0.7% |
| CCCC(CCC)c1nnc(NC(=O)c2ccco2)s1 | inconclusive: -2% |
| O=C(O)c1cccc(NC(=S)NC(=O)c2cccc(OCc3ccccc3)c2)c1 | inactive: -1.7% |
| CCOc1ccccc1NC(=O)Nc1cc(S(=O)(=O)N(C)C)ccc1C | inconclusive: -4.4% |
| COc1ccccc1/C=C1\SC(=S)N(CCC(=O)NNC(=O)c2ccccc2OC)C1=O | inactive: -6.2% |
| O=C(Cc1c(F)cccc1Cl)Nc1ccccc1C(=O)N1CCCCC1 | inconclusive: -2.4% |
| Cc1nc(NC(=O)C23CC4CC(CC(C4)C2)C3)sc1Cc1ccc2c(c1)OCO2 | inactive: -0.3% |
| COc1ccc(NC(=O)C(CC(C)C)NC(=O)C2CCCCC2)c(OC)c1 (stereo unspecified) | inactive: -0.5% |
| Cc1ccc(NC(=O)CN2CCN(Cc3ccccc3)CC2)c(Br)c1 | inconclusive: -1.5% |
| CN1CCN(c2ccc([N+](=O)[O-])cc2NC(=O)c2cccs2)CC1 | inactive: -0.6% |

Next part:

| Structure (SMILES) | inhibition |
| --- | --- |
| O=c1c2ccccc2[nH]c(=S)n1Cc1cccnc1 | inconclusive: -0.5% |
| CN1C(=O)N(C)C2(c3ccccc3)N(C)C(=O)NC12c1ccccc1 (stereo unspecified) | inconclusive: 2.3% |
| O=C1CC(N2CCC(c3nc4ccccc4o3)CC2)C(=O)N1c1cc(Cl)cc(Cl)c1 (stereo unspecified) | inactive: 0.9% |
| O=[N+]([O-])c1cccc(-c2nc(-c3cccs3)c(-c3cccs3)[nH]2)c1 | inactive: -0.4% |
| C=CCc1ccccc1OCC(O)CN1CCN(c2ccc(OC)cc2)CC1 (stereo unspecified) | inconclusive: -3.3% |
| Cc1cc([N+](=O)[O-])nn1Cn1nc([N+](=O)[O-])cc1C | inactive: -0.8% |
| CCOC(=O)C1CSC(CC(=O)Nc2ccc(OC(F)(F)F)cc2)C(=O)N1 (stereo unspecified) | inconclusive: 8.3% |
| Cc1ccc(-n2c(SCC(=O)N3CCOCC3)nnc2-c2cccnc2)cc1 | inconclusive: 10.2% |
| CCN(CC)c1ccc2nc3ccc(N)cc3[n+](-c3ccccc3)c2c1 | active: 33.5% |
| C[C@H](O)[C@@H]1C(=O)N2CCc3c([nH]c4ccccc34)[C@@H]2C[C@@H]1N(C)C(=O)Nc1cc(Cl)cc(Cl)c1 | inactive: -0.5% |
| Cc1cc(Cl)c(S(=O)(=O)N2CCCC2)cc1OCC(=O)NC1CCCCC1 | inconclusive: 2.4% |
| O=S(=O)(c1ccc(F)cc1)c1nc(-c2ccccc2F)oc1N1CCCCC1 | inconclusive: 4.2% |
| Cc1ccc(-c2cnco2)cc1 | inconclusive: -2.7% |
| Cc1oncc1C(=O)Nc1cccc2ccccc12 | inconclusive: 2.5% |
| CCCC(=O)c1c(NC)cc(C)oc1=O | inconclusive: -3% |
| Cc1nn(Cc2ccccc2)c(C)c1NC(=O)c1cc(-c2ccc3c(c2)OCO3)on1 | inconclusive: -1.8% |
| COc1ccc(OC)c(C2C(C(=O)c3ccco3)=C(O)C(=O)N2Cc2cccnc2)c1 (stereo unspecified) | inconclusive: -2.6% |
| COc1ccc(CCN(C)C(=O)C2CCCN(C3CCN(Cc4ccccc4)CC3)C2)cc1OC (stereo unspecified) | inactive: -5.7% |
| Cc1cccc(N2CCN(S(=O)(=O)c3c(C)[nH]c(=O)[nH]c3=O)CC2)c1C | inconclusive: -0.7% |
| COc1ccc(C(=O)c2sc3nc(C)cc(-c4cccs4)c3c2N)cc1 | active: 56.4% |
| COCCN1C2=C(COC(C)(C)C2)C(=S)NC1c1ccccc1 (stereo unspecified) | inconclusive: -3.5% |
| O=C(NCc1ccncc1)/C(=C\c1ccc(F)cc1)NC(=O)c1ccccc1 | inactive: -1.7% |
| Cc1cc(Br)cn2c(Cc3ccsc3)c(C(C)(C)C)nc12 | inactive: 7.9% |

| Structure (SMILES) | inhibition |
| --- | --- |
| O=C(NNc1cc(Cl)ccc1Cl)c1c(F)cccc1Cl | inconclusive: -16.4% |
| Cc1ccc(-c2nc3ccc(Cl)cn3c2CC2CCCCC2)cc1 | inconclusive: 0.8% |
| Cc1nnc(SCCn2c(N3CCN(C)CC3)nc3c2c(=O)n(C)c(=O)n3C)s1 | inconclusive: -0.1% |
| Cc1cc(OC2CCCCC2)nc(-c2ccccc2O)n1 | inconclusive: -0.2% |
| COc1ccccc1CNC(=O)C1(C)CCN1Cc1ccc(OC(F)(F)F)cc1 (stereo unspecified) | inactive: 0% |
| CC(=O)CCc1oc2ccc(C)cc2c1-c1ccc(C)o1 | inactive: -1.7% |
| CC1CCN(C(=O)c2cc3c(ccc4ccccc43)o2)CC1 | inconclusive: -4.5% |
| Cc1nc(C)c(-c2ccnc(/N=C/NO)n2)s1 | inconclusive: -40.7% |
| CCCCNC(=O)CCC(=O)Nc1ncc(-c2ccc(C)cc2)n1C | inconclusive: 0.2% |
| Oc1c(Cl)cc(Cl)cc1C=Nc1ccc(N2CCOCC2)cc1 | inactive: 3.9% |
| COc1cccc(-c2nc3ccc(O)cc3c(=O)o2)c1 | inconclusive: 0.5% |
| COc1ccc(C(=O)Oc2ccc(=O)n(-c3ccccc3)n2)cc1 | inconclusive: -3.3% |
| CCN(CC)CCCNS(=O)(=O)c1ccc(OC)cc1 | inconclusive: -4% |
| CCCN(C)C1CN(Cc2cn(CCCC(=O)OC)nn2)S(=O)(=O)C1 (stereo unspecified) | inactive: 1.2% |
| CCN(CC)CCCNC(=O)C1CCN(C(=O)c2oc3cc4sc(N(C)C)nc4cc3c2C)CC1 | inactive: 2.3% |
| Clc1ccccc1Nc1ncnc2c1nnn2Cc1ccccc1 | inconclusive: -1.1% |
| O=C(CCN1C(=O)c2ccccc2S1(=O)=O)NCc1ccc(F)cc1 | inconclusive: -4.7% |
| CCc1c(C)c2cc(Cl)c(O)c(CN(C)C)c2oc1=O | inconclusive: -4.8% |
| Clc1ccccc1OCc1nn[nH]n1 | inconclusive: -2.1% |
| COc1ccc(CC(=O)NC2CCN(Cc3nnnn3C(C)(C)C)CC2)cc1OC | inconclusive: -2.4% |
| O=c1oc(-c2cccs2)nc2c1cnn2-c1ccccc1 | inconclusive: -3.7% |
| COC(=O)c1cccc(NC(=O)Nc2ccc(Cl)cc2Cl)c1 | inconclusive: 7.4% |

Grouped by structure, those above containing a tert-butyl group (2)

| Structure (SMILES) | inhibition |
| --- | --- |
| Cc1cc(Br)cn2c(Cc3ccsc3)c(C(C)(C)C)nc12 | inactive: 7.9% |
| COc1ccc(CC(=O)NC2CCN(Cc3nnnn3C(C)(C)C)CC2)cc1OC | inconclusive: -2.4% |
